Data from patent US20090062197A1 (FULCRUM SP, published 2009).
Results are given in words; binding and its absence hold for the method and conditions named. Some entries that bind do so weakly or less than the wild type.

How the values were obtained:
[1] = biological target: Cys2 SP1 variant (aspen (Populus tremula)); experiment: disulfide-linked subunits within the oligomer, SDS-PAGE
[2] = biological target: Cys2 SP1 variant (aspen (Populus tremula)); experiment: homo-oligomer complex formation, SDS-PAGE of unboiled samples
[3] = biological target: Cys2 SP1 variant (aspen (Populus tremula)); experiment: disulfide-linked dimer, SDS-PAGE with or without β-mercaptoethanol
[4] = biological target: Cys2 SP1 variant (aspen (Populus tremula)); experiment: oligomer formation, SDS-PAGE

Measured: binding

B1: Cys2 SP1 variant (protein)
chain: MCATRTPKLVKHTLLTRFKDEITREQIDNYINDYTNLLDLIPSMKSFNWGTDLGMESAELNRGYTHAFESTFESKSGLQEYLDSAALAAFAEGFLPTLSQRLVIDYFLY
binds: all assays above
